Data as given in PubChem BioAssay AID1224828 (NIAID, 2016).
In all, the deposit lists about 17,000 reagents; this is an unselected part. 762 of them (4.5%) were called active. 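Active calls include both raised and lowered p65 entry, mostly lowered; wells with fewer than 50 cells lack a z-score.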 Raw values vary from plate to plate and are shown uncorrected. Reagents against one gene are numbered here.

Assay: 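Knock-downs that increase or decrease LPS-induced p65 nuclear translocation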 (primary screen)
Cells: mouse RAW264.7 G9 macrophage reporter cells (GFP-p65, Tnf promoter-mCherry)
Reagent: siRNA pool against mouse genes, 100 nM
Timing: 2 days siRNA transfection, then 40 min LPS before fixation
Challenge: LPS (Salmonella minnesota R595) at 10 ng/ml
Read-out: 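Imaged p65 nuclear translocation ratio, normalised to the plate median, converted to robust z-scores and averaged across two replicates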
Reading the numbers: p65 translocation robust z-score: higher = more nuclear NF-kappaB p65 after LPS than the plate median; nuclear/cytoplasmic p65 ratio: higher = more nuclear NF-kappaB p65
Hit rule: 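Called active when z exceeds 3.3 or falls under -1.56 (median of Tlr4 controls), giving activity score of at least 50; no calls for control wells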
Meaning of the calls: active = hit (p65 shift raised or lowered); inactive = no clear change

The opening 6 records, ahead of the listing:
gene symbol | reagent no. | p65 translocation robust z-score | nuclear/cytoplasmic p65 ratio, rep 1 | nuclear/cytoplasmic p65 ratio, rep 2 | low cell count flag | call
Pbk | 1 | -0.71 | 1.68 | 1.2 | enough cells to score | inactive
9630028B13Rik | 1 | – | 1.3 | 1.54 | fewer than 50 cells per well; well left out of scoring | inactive
Ggt7 | 1 | -0.15 | 1.55 | 1.37 | enough cells to score | inactive
Atp5mc2 | 1 | 0.36 | 1.57 | 1.65 | enough cells to score | inactive
Spag6l | 1 | 0.12 | 1.31 | 1.24 | enough cells to score | inactive
Clvs2 | 1 | -0.17 | 1.36 | 1.5 | enough cells to score | inactive

Results, repeating the preview:
gene symbol | reagent no. | p65 translocation robust z-score | nuclear/cytoplasmic p65 ratio, rep 1 | nuclear/cytoplasmic p65 ratio, rep 2 | low cell count flag | call
Pbk | 1 | -0.71 | 1.68 | 1.2 | enough cells to score | inactive
9630028B13Rik | 1 | – | 1.3 | 1.54 | fewer than 50 cells per well; well left out of scoring | inactive
Ggt7 | 1 | -0.15 | 1.55 | 1.37 | enough cells to score | inactive
Atp5mc2 | 1 | 0.36 | 1.57 | 1.65 | enough cells to score | inactive
Spag6l | 1 | 0.12 | 1.31 | 1.24 | enough cells to score | inactive
Clvs2 | 1 | -0.17 | 1.36 | 1.5 | enough cells to score | inactive
Rarres1 | 1 | -1.19 | 1.38 | 1.32 | enough cells to score | inactive
Trim10 | 1 | – | 1.3 | 1.19 | fewer than 50 cells per well; well left out of scoring | inactive
Fhl4 | 1 | – | 1.32 | 1.19 | fewer than 50 cells per well; well left out of scoring | inactive
Rdh13 | 1 | -0.09 | 1.35 | 1.26 | enough cells to score | inactive
Slc12a7 | 1 | -1.18 | 1.24 | 1.12 | enough cells to score | inactive
Lamb2 | 1 | 1.14 | 1.64 | 1.52 | enough cells to score | inactive
Rasl2-9 | 1 | 1.5 | 1.41 | 1.38 | enough cells to score | inactive
Osr1 | 1 | 0.42 | 1.98 | 1.42 | enough cells to score | inactive
Minar2 | 1 | -0.25 | 1.41 | 1.43 | enough cells to score | inactive
Sil1 | 1 | – | 1.41 | 1.58 | fewer than 50 cells per well; well left out of scoring | inactive
Atrn | 1 | -0.76 | 1.42 | 1.47 | enough cells to score | inactive
Haus2 | 1 | – | 1.63 | 1.44 | fewer than 50 cells per well; well left out of scoring | inactive
Gemin4 | 1 | -1.14 | 1.39 | 1.34 | enough cells to score | inactive
Dedd | 1 | -0.57 | 1.38 | 1.32 | enough cells to score | inactive
Slc24a3 | 1 | – | 1.59 | 1.28 | fewer than 50 cells per well; well left out of scoring | inactive
Bcor | 1 | 1.06 | 1.66 | 1.58 | enough cells to score | inactive
Gdi2 | 1 | 0.21 | 1.57 | 1.55 | enough cells to score | inactive
Gdi2 | 2 | -2.71 | 1.03 | 1.07 | enough cells to score | active
Tnfaip8 | 1 | -0.45 | 1.47 | 1.44 | enough cells to score | inactive
Paqr7 | 1 | -0.12 | 1.48 | 1.33 | enough cells to score | inactive
Smc5 | 1 | – | 0.697 | 1.25 | fewer than 50 cells per well; well left out of scoring | inactive
Gstp3 | 1 | -0.22 | 1.58 | 1.76 | enough cells to score | inactive
Brms1 | 1 | 0.42 | 1.41 | 1.58 | enough cells to score | inactive
Krt84 | 1 | -0.58 | 1.25 | 1.55 | enough cells to score | inactive
2410004B18Rik | 1 | – | 1.25 | 1.37 | fewer than 50 cells per well; well left out of scoring | inactive
Cox8b | 1 | -0.43 | 1.53 | 1.69 | enough cells to score | inactive
Taf8 | 1 | – | 1.37 | 0.98 | fewer than 50 cells per well; well left out of scoring | inactive
Mettl3 | 1 | -0.48 | 1.57 | 1.54 | enough cells to score | inactive
Uqcrc2 | 1 | 0.5 | 1.51 | 1.64 | enough cells to score | inactive
Or5p52 | 1 | – | 1.31 | 1.12 | fewer than 50 cells per well; well left out of scoring | inactive
Zfand2b | 1 | 0.37 | 1.6 | 1.49 | enough cells to score | inactive
Acnat2 | 1 | 0.72 | 1.74 | 1.86 | enough cells to score | inactive
Serf2 | 1 | -0.02 | 1.29 | 1.26 | enough cells to score | inactive
Irgc | 1 | – | 1.49 | 1.36 | fewer than 50 cells per well; well left out of scoring | inactive
Hcfc1r1 | 1 | 0.38 | 1.78 | 1.53 | enough cells to score | inactive
Notch1 | 1 | -0.15 | 1.51 | 1.31 | enough cells to score | inactive
Carm1 | 1 | -0.29 | 1.52 | 1.76 | enough cells to score | inactive
Jmjd8 | 1 | -0.08 | 1.34 | 1.5 | enough cells to score | inactive
Bend7 | 1 | -1.1 | 1.24 | 1.23 | enough cells to score | inactive
Srsf3 | 1 | 2.89 | 2.46 | 1.48 | enough cells to score | inactive
Bmerb1 | 1 | – | 1.31 | 1.19 | fewer than 50 cells per well; well left out of scoring | inactive
Sec14l1 | 1 | 0.72 | 1.7 | 1.61 | enough cells to score | inactive
Or8g26 | 1 | 1.17 | 1.6 | 1.38 | enough cells to score | inactive
Taf5l | 1 | -0.53 | 1.47 | 1.42 | enough cells to score | inactive
Gabarapl1 | 1 | 0.53 | 1.47 | 1.47 | enough cells to score | inactive
Slc47a1 | 1 | 1.28 | 1.57 | 1.76 | enough cells to score | inactive
Akt3 | 1 | – | 2.45 | 0.897 | fewer than 50 cells per well; well left out of scoring | inactive
Grik4 | 1 | 0.68 | 1.5 | 1.48 | enough cells to score | inactive
1110059E24Rik | 1 | 0.9 | 1.58 | 1.65 | enough cells to score | inactive
Vac14 | 1 | 0.52 | 1.5 | 1.76 | enough cells to score | inactive
Tbcel | 1 | -0.02 | 1.47 | 1.35 | enough cells to score | inactive
U55872 (retired record) | 1 | – | 1.08 | 1.27 | fewer than 50 cells per well; well left out of scoring | inactive
Rax | 1 | 0.39 | 1.58 | 1.56 | enough cells to score | inactive
